The target of the assay is Flag-Lrp4 (low-density lipoprotein receptor-related protein 4) (rat) (UniProt Q9QYP1). The assay can be described thus: co-IP; Flag-Lrp4 and HA-Ror1 or HA-Ror2 co-transfected into HEK293T cells; Lrp4 precipitated from cell lysates with Flag antibody (Flag M2 beads), immunocomplex analysed for HA-Ror1 and Ror2; also cells treated with Agrin (interaction enhanced).

By UniProt entry, the sequences of proteins in these tests, tags left out. Residues count along the entry.
UniProt Q9QYP1, residues 21-1905: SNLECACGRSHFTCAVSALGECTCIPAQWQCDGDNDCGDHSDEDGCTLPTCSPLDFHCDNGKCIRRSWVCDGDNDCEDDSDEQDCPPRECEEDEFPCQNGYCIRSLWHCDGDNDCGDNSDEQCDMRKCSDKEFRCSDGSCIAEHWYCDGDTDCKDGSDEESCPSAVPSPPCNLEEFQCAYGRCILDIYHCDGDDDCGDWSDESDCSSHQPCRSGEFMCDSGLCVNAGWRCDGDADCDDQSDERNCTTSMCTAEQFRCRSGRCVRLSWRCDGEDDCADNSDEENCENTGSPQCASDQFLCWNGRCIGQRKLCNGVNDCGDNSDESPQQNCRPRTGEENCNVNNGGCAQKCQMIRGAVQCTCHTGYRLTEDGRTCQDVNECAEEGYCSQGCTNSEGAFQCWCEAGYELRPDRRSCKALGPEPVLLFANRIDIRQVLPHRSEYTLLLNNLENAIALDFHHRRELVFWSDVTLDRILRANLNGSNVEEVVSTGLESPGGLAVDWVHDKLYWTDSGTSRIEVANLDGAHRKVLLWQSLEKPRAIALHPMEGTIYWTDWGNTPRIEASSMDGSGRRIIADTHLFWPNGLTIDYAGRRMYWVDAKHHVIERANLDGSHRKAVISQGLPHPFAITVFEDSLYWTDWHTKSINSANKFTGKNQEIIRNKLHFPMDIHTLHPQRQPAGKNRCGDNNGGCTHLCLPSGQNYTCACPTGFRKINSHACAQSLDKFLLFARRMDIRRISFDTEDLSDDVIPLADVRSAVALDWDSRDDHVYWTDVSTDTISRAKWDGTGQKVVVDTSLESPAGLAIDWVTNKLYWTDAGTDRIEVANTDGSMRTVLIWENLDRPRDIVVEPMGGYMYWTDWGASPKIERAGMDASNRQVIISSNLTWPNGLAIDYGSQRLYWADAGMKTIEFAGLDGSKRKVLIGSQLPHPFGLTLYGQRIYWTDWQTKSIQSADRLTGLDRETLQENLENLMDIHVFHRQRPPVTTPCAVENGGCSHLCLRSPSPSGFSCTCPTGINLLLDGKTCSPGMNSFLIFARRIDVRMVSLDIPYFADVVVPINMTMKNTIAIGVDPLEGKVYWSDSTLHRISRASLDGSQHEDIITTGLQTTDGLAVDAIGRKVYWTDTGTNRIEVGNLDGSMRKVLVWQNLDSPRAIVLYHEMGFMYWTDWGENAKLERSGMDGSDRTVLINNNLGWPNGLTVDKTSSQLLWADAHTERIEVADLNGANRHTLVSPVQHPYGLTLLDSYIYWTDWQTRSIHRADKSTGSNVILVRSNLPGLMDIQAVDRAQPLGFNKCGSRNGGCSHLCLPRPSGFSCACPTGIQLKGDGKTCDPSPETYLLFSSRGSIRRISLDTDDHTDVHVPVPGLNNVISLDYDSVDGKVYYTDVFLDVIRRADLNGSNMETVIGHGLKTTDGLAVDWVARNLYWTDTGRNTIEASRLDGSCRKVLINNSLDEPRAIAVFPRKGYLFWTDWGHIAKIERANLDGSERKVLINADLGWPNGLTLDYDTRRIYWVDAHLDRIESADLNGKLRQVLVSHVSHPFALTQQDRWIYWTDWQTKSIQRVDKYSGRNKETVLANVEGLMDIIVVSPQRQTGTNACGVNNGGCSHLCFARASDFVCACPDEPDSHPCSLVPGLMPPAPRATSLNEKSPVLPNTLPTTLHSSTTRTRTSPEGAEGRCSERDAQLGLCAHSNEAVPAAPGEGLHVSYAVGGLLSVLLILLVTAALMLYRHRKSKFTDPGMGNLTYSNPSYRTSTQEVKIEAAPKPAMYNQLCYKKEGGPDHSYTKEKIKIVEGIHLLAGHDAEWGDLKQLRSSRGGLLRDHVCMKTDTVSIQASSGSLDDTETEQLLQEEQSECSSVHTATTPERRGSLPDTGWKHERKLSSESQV
UniProt Q9Z139, residues 30-937: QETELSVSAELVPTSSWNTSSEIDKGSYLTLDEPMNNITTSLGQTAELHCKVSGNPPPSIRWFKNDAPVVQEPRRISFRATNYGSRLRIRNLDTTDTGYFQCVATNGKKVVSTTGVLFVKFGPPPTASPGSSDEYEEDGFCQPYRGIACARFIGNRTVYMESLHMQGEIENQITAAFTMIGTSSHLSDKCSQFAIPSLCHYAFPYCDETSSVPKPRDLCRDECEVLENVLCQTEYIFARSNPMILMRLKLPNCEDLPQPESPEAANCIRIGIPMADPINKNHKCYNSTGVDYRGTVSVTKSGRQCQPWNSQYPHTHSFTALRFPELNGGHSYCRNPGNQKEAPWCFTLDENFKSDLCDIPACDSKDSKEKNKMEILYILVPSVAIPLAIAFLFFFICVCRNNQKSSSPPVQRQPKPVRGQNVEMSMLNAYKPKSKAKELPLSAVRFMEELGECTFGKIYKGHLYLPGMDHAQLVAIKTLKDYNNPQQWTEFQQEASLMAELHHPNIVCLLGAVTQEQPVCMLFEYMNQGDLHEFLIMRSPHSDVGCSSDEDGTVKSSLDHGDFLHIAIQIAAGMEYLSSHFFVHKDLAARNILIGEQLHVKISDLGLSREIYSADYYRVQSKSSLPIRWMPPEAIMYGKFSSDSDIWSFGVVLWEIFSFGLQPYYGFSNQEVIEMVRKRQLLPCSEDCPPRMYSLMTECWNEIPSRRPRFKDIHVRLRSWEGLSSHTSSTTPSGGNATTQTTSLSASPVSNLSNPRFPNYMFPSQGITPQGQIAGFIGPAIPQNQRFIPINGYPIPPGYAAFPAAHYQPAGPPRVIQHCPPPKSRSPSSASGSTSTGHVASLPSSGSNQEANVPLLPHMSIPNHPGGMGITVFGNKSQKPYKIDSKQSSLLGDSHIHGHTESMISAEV
UniProt Q9Z138, residues 34-944: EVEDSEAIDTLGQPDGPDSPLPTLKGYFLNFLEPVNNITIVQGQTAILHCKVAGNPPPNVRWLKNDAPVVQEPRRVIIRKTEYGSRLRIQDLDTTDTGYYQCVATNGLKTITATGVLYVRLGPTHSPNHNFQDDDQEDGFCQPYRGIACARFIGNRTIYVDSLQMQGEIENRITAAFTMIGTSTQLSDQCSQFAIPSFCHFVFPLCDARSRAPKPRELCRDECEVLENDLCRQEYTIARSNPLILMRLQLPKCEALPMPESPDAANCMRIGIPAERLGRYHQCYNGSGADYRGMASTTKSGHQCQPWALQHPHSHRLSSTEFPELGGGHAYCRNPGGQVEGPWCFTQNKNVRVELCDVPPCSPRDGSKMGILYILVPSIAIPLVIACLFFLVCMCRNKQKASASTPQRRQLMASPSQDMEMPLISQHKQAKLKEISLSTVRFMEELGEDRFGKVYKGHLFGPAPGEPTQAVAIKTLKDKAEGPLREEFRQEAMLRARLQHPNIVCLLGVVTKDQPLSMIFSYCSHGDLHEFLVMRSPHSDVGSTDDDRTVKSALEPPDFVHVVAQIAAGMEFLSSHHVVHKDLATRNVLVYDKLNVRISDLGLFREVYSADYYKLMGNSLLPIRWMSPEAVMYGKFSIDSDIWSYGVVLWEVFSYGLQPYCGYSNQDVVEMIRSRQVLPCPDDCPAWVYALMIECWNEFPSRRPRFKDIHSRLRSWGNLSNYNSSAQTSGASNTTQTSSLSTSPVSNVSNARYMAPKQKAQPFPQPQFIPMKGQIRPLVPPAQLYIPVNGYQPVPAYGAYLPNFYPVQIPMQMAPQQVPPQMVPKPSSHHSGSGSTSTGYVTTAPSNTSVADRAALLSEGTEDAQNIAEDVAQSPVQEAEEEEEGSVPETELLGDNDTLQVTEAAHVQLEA

These are yes or no findings as the source states them, for the method shown. In cells and extracts the contact can be indirect. Some results given as binding are weak or reduced against the parent protein; the word gives no strength.

Turning to “HA-Ror1 (receptor tyrosine kinase-like orphan receptor 1) (from UniProt Q9Z139 30-937)”, the binding result was “no binding”.
Under “HA-Ror2 (receptor tyrosine kinase-like orphan receptor 2) (from UniProt Q9Z138 34-944)” stands “binds”.

The values are drawn from paper PMC6650252.
